Values of other authors in patent publication US20230256217A1, “OZONE GENERATION APPARATUSES AND METHODS OF TREATING WOUNDS” (priority 2020, published 2023).
For at least one compound, name, drawing or mass did not settle the structure.

Test system: S. epidermidis
Details: cited from earlier work

CO[C@H]1/C=C/O[C@@]2(C)Oc3c(C)c(O)c4c(O)c(c(/C=N/N5CCN(C)CC5)c(O)c4c3C2=O)NC(=O)/C(C)=C\C=C\[C@H](C)[C@H](O)[C@@H](C)[C@@H](O)[C@@H](C)[C@H](OC(C)=O)[C@@H]1C [rifampicin]
known effectiveness / resistance: known to be effective
